Values of other authors, collected in US12472193B2, “Methods and compositions for treating and preventing respiratory related diseases and conditions with xylitol-headgroup lipid analogs” (National Jewish Health, priority 2017, dated 2025).
The source holds more than one record for some entries. The other results are left out here. The source may hold further records. Values that stand side by side differ, and nothing given here explains why; dose, time, organism, isomer or construct need not be as stated for each record.

Conditions: exogenous POPG, earlier studies; cited from earlier work

CCCCCCCC/C=C\CCCCCCCC(=O)OC(COC(=O)CCCCCCCCCCCCCCC)COP(=O)(O)OCC(O)CO (stereo not shown)
half-life in the mouse lung: about 45 minutes and around 45 minutes and 45 minutes
